These are yes or no findings as the source states them, for the method shown. In cells and extracts the contact can be indirect. A yes stands for co-enrichment or nearness to the bait. Other partners may have been found. For some assays here: A no says only that the protein was not detected with the bait.
T1: TurboID-Gmc2 (S. cerevisiae) (UniProt Q06201)
T1 sequence: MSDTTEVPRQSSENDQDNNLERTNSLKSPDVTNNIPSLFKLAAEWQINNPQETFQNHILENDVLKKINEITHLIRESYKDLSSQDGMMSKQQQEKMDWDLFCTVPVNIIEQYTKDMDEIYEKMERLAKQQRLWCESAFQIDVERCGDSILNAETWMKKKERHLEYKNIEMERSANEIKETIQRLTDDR

Chains of the proteins cited; added tags and fusions are not shown.
UniProt P51979: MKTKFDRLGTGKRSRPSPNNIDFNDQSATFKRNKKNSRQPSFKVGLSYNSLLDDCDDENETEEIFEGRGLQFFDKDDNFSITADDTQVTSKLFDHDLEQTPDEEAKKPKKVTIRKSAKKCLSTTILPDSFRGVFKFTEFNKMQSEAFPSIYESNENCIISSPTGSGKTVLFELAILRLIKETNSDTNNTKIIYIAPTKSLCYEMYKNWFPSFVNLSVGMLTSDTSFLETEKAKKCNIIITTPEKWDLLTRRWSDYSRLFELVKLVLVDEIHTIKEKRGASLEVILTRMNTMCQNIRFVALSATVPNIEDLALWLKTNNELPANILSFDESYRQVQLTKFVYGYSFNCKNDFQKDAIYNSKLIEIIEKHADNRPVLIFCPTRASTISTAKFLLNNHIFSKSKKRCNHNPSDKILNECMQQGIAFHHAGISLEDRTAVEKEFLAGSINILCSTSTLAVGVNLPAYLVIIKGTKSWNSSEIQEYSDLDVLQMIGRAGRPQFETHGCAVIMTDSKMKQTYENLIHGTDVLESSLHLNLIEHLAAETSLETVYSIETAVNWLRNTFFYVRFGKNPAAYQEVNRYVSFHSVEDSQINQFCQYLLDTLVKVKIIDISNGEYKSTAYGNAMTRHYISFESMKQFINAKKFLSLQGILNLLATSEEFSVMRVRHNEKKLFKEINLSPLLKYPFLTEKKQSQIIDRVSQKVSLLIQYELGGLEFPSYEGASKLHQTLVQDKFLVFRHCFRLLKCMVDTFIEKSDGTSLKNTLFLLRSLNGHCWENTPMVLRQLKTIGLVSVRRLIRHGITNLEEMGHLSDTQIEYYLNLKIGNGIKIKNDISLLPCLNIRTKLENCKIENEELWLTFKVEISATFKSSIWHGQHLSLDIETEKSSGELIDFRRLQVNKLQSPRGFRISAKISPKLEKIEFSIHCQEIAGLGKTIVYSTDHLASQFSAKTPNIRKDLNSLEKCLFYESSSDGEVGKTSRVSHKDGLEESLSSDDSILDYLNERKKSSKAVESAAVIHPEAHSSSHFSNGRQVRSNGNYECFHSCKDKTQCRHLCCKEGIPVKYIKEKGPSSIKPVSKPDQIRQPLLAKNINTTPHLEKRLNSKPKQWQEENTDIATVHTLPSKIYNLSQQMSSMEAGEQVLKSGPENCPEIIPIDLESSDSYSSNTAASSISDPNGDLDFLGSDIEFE

T2: Msh4-TurboID (S. cerevisiae) (UniProt P40965)
T2 sequence: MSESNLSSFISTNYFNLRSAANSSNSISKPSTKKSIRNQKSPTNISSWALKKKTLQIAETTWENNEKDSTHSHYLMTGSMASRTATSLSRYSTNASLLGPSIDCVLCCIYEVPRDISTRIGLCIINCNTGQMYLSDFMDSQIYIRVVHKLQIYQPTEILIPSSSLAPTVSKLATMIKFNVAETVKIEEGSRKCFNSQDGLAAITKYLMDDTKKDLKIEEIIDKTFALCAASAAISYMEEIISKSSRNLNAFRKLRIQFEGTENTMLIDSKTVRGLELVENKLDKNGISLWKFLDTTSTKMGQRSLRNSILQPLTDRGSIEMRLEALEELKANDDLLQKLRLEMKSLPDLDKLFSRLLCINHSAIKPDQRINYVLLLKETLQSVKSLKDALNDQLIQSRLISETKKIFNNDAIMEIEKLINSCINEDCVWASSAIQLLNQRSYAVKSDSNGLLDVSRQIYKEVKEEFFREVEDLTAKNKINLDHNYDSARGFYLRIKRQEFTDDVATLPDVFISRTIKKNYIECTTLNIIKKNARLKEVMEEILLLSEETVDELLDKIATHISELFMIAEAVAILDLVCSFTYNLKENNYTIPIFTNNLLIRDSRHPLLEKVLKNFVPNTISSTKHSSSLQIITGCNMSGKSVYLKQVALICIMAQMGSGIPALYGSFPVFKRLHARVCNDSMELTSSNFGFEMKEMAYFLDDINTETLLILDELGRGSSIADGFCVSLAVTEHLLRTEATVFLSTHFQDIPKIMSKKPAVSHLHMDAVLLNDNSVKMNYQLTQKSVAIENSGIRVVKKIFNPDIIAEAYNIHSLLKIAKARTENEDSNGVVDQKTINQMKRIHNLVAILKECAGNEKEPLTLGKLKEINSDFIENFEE

T3: Msh5-TurboID (S. cerevisiae) (UniProt Q12175)
T3 sequence: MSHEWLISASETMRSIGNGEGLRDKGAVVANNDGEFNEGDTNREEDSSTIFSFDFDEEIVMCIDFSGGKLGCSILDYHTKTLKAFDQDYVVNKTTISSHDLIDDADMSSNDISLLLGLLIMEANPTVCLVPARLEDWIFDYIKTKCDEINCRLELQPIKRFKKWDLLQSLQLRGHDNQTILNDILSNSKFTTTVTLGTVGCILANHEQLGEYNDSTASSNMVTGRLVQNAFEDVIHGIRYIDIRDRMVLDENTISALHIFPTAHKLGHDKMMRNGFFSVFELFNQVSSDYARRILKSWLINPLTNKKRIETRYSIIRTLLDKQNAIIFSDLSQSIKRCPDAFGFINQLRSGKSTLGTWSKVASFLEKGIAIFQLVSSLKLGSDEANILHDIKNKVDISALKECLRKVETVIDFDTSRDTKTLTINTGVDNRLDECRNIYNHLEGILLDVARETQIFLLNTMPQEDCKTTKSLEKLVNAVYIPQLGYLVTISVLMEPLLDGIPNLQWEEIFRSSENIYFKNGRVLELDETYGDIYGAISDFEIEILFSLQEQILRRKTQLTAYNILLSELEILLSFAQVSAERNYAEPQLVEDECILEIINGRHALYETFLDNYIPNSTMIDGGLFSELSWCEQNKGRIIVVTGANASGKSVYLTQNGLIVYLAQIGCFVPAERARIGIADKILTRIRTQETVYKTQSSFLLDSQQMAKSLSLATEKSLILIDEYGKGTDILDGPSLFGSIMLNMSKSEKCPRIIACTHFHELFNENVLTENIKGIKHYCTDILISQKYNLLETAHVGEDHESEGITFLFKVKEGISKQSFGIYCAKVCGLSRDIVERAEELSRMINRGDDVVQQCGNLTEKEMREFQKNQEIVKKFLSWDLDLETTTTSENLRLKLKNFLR


Experiments:
[1] = molecular target: Mer3-TurboID (S. cerevisiae) (UniProt P51979); experiment: proximity labelling; eleven TurboID fusion strains (ndt80, homozygous) and a no-TurboID control, ~24 h sporulation, two replicates; TCA extract, streptavidin-sepharose pull-down, trypsin, UPLC-MS/MS; targets = in both replicates and in neither control
[2] = molecular target: T1, TurboID-Gmc2 (S. cerevisiae); experiment: as above
[3] = molecular target: T2, Msh4-TurboID (S. cerevisiae); experiment: proximity labelling; TurboID fusion allele (homozygous, or heterozygous where said) in ndt80 diploid cells, 24 h in sporulation medium, endogenous biotin; TCA extract, 8% or 12% SDS-PAGE, streptavidin:HRP blot; also done in mutant backgrounds in which the labelling was kept
[4] = molecular target: T3, Msh5-TurboID (S. cerevisiae); experiment: as above
[5] = molecular target: T1, TurboID-Gmc2 (S. cerevisiae); experiment: as above
[6] = molecular target: Zip4iTurboID (S. cerevisiae); experiment: as above

binding [1] | binding [2] | binding [3] | binding [4] | binding [5] | binding [6] | Binder
binds | no binding |  |  |  |  | Zip1 (protein, UniProt P31111 1-875) MSNFFRDSSMGFKPRPNIFAKLRVRDVDSDSSANTVVENSSNCLDVGSSIEGDDTFKKPHKTSTEQELITSMSLSQRNHGYSDDMEIGSPKKTTSTDQYNRILKNDVAAIENDTDEDFEITEVREVSEGVAKETKESHGDPNDSETTLKDSKMHEYTMTNGKAPLHTSINNSSTSSNDVLLEAFTNTQRICSNLKQELQKQQQDNAKLKVRLQSYASNSDKINEKVGKYKSCLETLQERIATLTSHKNNQETKLKDLRQNHQLYQRRISGFKTSIENLNKTINDLGKNKKEADAELMKKGKEIEYLKRELDDCSGQLSEEKIKNSSLIQEMGKNREEMIKSIENFFSEDKAHHLLQFNKFEERVHDLFEKKLQKHFDVAKDTLNVGLRNTTVELSSNTETMLKQQYEDIKENLEQKMSSSKDEMAKTINELSVTQKGLIMGVQEELLTSSGNIQTALVSEMNNTRQELLDDASQTAKNYASLENLVKAYKAEIVQSNEYEERIKHLESERSTLSSQKNQIISSLGTKEAQYEDLVKKLEAKNIEISQISGKEQSLTEKNENLSNELKKVQDQLEKLNNLNITTKSNYENKISSQNEIVKALVSENDTLKQRIQQLVEIKENEQKDHTTKLEAFQKNNEQLQKLNVEVVQLKAHELELEEQNRHLKNCLEKKETGVEESLSDVKTLKQQVIVLKSEKQDITAEKLELQDNLESLEEVTKNLQQKVQSQKRELEQKIKELEEIKNHKRNEPSKKGTQNFTKPSDSPKKNATTSNLFPNNSAAIHSPMKKCPKVDHISKSRINSSKETSKFNDEFDLSSSSNDDLELTNPSPIQIKPVRGKIKKGSNCMKPPISSRKKLLLVEDEDQSLKISKKRRRK
binds | binds | binds | binds weakly | binds | binds | Ecm11 (protein, UniProt Q04110 1-302) MTVIKTEPTTEVTLYSPPSKESLSKDDAHRKKQNNKPPSSINSRSGPNKHKLAAKAPEKKINNTDKQDLSAFLLNPSLIVKPSESKKKENIVAYNDTPGIKTEHTAFQPLTPISKKRALKEKAASEKCDSFDLSRDEKPYIQKKSKTLSSVTEINSSEYKLSLNGENTSSPAKEKSQEPIENPGSYQKTRNYLFEKPDPLDTCLQDYSSMLPSNVAEEDQEYFISVADSTLEEWTNKGQEIIDQQFQLYQEIIKKRIELSYKFKGIISVINDRADALEEQGQQLEGKIKKVKTLANEILNII
